In assay [1] the target is IreB D50A fused to the T18 or T25 fragment of Bordetella pertussis adenylate cyclase (E. faecalis) (UniProt Q836B3). Kind of assay: two-hybrid; bacterial two-hybrid: fusions to the T18 and T25 domains of B. pertussis adenylate cyclase, co-transformed in E. coli DHM1, spotted on LB agar with X-gal and 0.1 mM IPTG, 5 days at room temperature.
The target in assay [2] is T1, recombinant MurAB-His6 (E. faecalis) (UniProt Q836E5).
T1 sequence: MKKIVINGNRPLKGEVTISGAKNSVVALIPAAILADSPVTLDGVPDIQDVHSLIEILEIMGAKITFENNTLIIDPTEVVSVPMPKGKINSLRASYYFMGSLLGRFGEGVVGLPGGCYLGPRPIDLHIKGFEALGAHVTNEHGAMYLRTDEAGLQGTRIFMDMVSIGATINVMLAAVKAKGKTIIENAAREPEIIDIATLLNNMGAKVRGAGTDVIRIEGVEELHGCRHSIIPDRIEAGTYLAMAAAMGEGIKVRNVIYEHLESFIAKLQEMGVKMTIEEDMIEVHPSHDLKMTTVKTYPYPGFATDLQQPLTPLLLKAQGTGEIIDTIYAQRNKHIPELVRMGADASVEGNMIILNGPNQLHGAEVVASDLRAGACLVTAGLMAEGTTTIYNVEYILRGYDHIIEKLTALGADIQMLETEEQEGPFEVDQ
As to the kind of experiment: thermal shift assay; 2.5 uM MurAB with rising molar ratios of test protein, 10x SYPRO Orange, 50 mM Tris, 25 mM NaCl, pH 7.5; change of the MurAB melt temperature; both purified.

Assay [3] has as its target T2, MurAB fused to the T18 or T25 fragment of Bordetella pertussis adenylate cyclase (E. faecalis) (UniProt Q836E5).
T2 sequence: T1 sequence
As to the kind of experiment: two-hybrid; bacterial two-hybrid: fusions to the T18 and T25 domains of B. pertussis adenylate cyclase, co-transformed in E. coli DHM1, spotted on LB agar with X-gal and 0.1 mM IPTG, 5 days at room temperature.

No constants are given. Whether binding was seen depends on the method and setting. Some binding calls cover weakened binding; strength is not graded here. For part of these data: Sequences can lack the tags named with a protein.

On to “IreB D50A fused to the T18 or T25 fragment of Bordetella pertussis adenylate cyclase (from UniProt Q836B3 1-89)”, for which the binding entry in assay [1] is “binds”.
For the molecule “lysozyme (from UniProt P00698 19-147) (enzyme)”, the binding entry in assay [2] was “no binding”.

B1: purified recombinant wild-type IreB (expressed as His6-SUMO-IreB) (natural protein)
chain: MGFTDETVRFDFDDNRKKAISETLETVYRALEEKGYNPINQIVGYLLSGDPAYIPRYQDARNLIRRHERDEIMEELTKYYLANHGIDIK
notes: IreB of Enterococcus faecalis; wild-type allele amplified from OG1RF genomic DNA; IreB for the enzymatic assays was purified in MOPS buffer; also called unphosphorylated IreB; source: E. coli BL21(DE3), purified (Ni-charged resin)
As for B1, the binding result in assay [3] was “binds”.

The values above are taken from paper PMC12077105, “PASTA kinase signaling regulates peptidoglycan synthesis in Enterococcus faecalis by direct inhibition of UDP-N-acetylglucosamine 1-carboxyvinyl transferase activity” (mBio, 2025).
